Assay results as given in PMC10804696.
No constants are given. Whether binding was seen depends on the method and setting. Binding seen in cells or lysates may run through a third protein. Some results given as binding are weak or reduced against the parent protein; the word gives no strength.

Amino acid sequences for entries named in this document (tags omitted). Residues count along the entry.
UniProt P37173, residues 23-567: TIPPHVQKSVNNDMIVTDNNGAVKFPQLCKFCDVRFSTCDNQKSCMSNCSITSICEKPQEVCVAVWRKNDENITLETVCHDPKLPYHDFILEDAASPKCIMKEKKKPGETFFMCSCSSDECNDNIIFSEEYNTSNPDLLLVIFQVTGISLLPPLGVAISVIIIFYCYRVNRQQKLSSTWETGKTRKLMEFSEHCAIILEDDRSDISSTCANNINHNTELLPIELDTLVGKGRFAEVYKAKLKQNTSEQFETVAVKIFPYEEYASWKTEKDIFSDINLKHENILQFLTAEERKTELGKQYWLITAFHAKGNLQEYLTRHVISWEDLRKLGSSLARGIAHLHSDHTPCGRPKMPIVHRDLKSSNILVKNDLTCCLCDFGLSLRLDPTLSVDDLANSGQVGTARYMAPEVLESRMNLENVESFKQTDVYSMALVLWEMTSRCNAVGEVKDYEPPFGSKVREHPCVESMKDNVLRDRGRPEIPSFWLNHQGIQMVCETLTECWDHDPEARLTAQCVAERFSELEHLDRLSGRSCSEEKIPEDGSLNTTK

Target: TGF-β receptor II (TGFBR2) (human (endogenous in NHDF)) (UniProt P37173)
Experiment: co-IP; NHDF cultured with 10% FBS DMEM, lysed in 0.1% Triton X-100, 0.1 M Tris pH 8.1 with phosphatase and protease inhibitors; 1000 μg lysate with 1 μg anti-TEM1 antibody (or normal rabbit IgG) and protein A and G agarose beads at 4 °C overnight; Western blot; reverse precipitation with a TGFBR2 antibody

B1: Tumor endothelial marker 1 (TEM1) (protein, UniProt Q9HCU0-1 18-757)
chain: QDPWAAEPRAACGPSSCYALFPRRRTFLEAWRACRELGGDLATPRTPEEAQRVDSLVGAGPASRLLWIGLQRQARQCQLQRPLRGFTWTTGDQDTAFTNWAQPASGGPCPAQRCVALEASGEHRWLEGSCTLAVDGYLCQFGFEGACPALQDEAGQAGPAVYTTPFHLVSTEFEWLPFGSVAAVQCQAGRGASLLCVKQPEGGVGWSRAGPLCLGTGCSPDNGGCEHECVEEVDGHVSCRCTEGFRLAADGRSCEDPCAQAPCEQQCEPGGPQGYSCHCRLGFRPAEDDPHRCVDTDECQIAGVCQQMCVNYVGGFECYCSEGHELEADGISCSPAGAMGAQASQDLGDELLDDGEDEEDEDEAWKAFNGGWTEMPGILWMEPTQPPDFALAYRPSFPEDREPQIPYPEPTWPPPLSAPRVPYHSSVLSVTRPVVVSATHPTLPSAHQPPVIPATHPALSRDHQIPVIAANYPDLPSAYQPGILSVSHSAQPPAHQPPMISTKYPELFPAHQSPMFPDTRVAGTQTTTHLPGIPPNHAPLVTTLGAQLPPQAPDALVLRTQATQLPIIPTAQPSLTTTSRSPVSPAHQISVPAATQPAALPTLLPSQSPTNQTSPISPTHPHSKAPQIPREDGPSPKLALWLPSPAPTAAPTALGEAGLAEHSQRDDRWLLVALLVPTCVFLVVLLALGIVYCTRCGPHAPNKRITDCYRWVIHAGSKSPTEPMPPRGSLTGVQTCRTSV
B1 was tested, and the binding was “binds”.
